Experiment: In vitro fusion assay of artificial lipid droplets (light scattering)

For “phosphatidic acid (1,2-Diacyl-sn-glycerol 3-phosphate) [PA]”, the “fraction of PA that achieves coalescence of artificial LDs” value (PC covered LDs, PC:PA 20:1) was about 5%, the “fraction of PA that achieves coalescence of artificial LDs” value (in the presence of PE, PC:PE:PA 3:1:0.13) was about 3 % molar ratio and the “number of artificial LDs during incubation” value (increased concentration of PA in artificial LDs, light scattering) was “decreased significantly”.
